## Results from one PubChem assay

Source: PubChem BioAssay AID1053133 (Broad Institute, 2014).

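Vaccinia-infected cells with a two-color viral stage reporter; Venus fluorescence read on a plate reader; the cell line is not named here; timing not stated here. The test concentration is not given here. Percent change in Venus reporter signal; lower (more negative) values mean stronger inhibition of that viral stage.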

Values are in %. The controls that fix the scale are not given here. Common to all entries: measured here: Venus reporter, other viral stage. Part of the compounds only, not a random draw; the main read-out is not listed here.

COc1ccccc1S(=O)(=O)N(C)C[C@@H]1Oc2cc(C#CCC(C)C)ccc2S(=O)(=O)N([C@H](C)CO)C[C@@H]1C gave activity change (Venus) -40.83%.
COc1ccc2c3c(n(C)c2c1)[C@H](CO)N(C(=O)Nc1cccc(F)c1)CC31CN(C)C1 gave activity change (Venus) -38.27%.
N#C[C@@H]1[C@H](c2ccccc2)[C@H](CO)N1S(=O)(=O)c1ccc(-c2ccccc2)cc1 gave activity change (Venus) -29.44%.
CN(C)C(=O)[C@@]1(Cc2ccccc2N=[N+]=[N-])N=C(c2ccc(OCCCO)cc2)O[C@H]1c1ccccc1N=[N+]=[N-] gave activity change (Venus) -36.48%.
COc1ccccc1C(=O)Nc1ccc2c(c1)C(=O)N(C)[C@H]1CC[C@@H](CC(=O)NCc3ccc(Cl)c(Cl)c3)O[C@H]1CO2 gave activity change (Venus) -31.35%.
Cc1cccc(-c2ccc([C@H]3[C@@H](CO)N4CCCCN(Cc5ccncc5)C[C@H]34)cc2)c1 gave activity change (Venus) -31.84%.
C[C@H]1CN([C@@H](C)CO)C(=O)Cc2cc(NC(=O)C3CCCCC3)ccc2O[C@H]1CN(C)Cc1ccc(-c2ccccc2)cc1 gave activity change (Venus) -28.71%.
O=C(C[C@H]1C[C@@H]2c3cc(NC(=O)Nc4ccccc4F)ccc3O[C@@H]2[C@@H](CO)O1)NCc1ccc(Oc2ccccc2)cc1 gave activity change (Venus) -25.47%.
CN1[C@@H]2Cn3c(ccc(-c4ccccc4)c3=O)[C@H]1[C@@H](C(=O)N1CCC(Cc3ccccc3)CC1)[C@@H]2CO gave activity change (Venus) -28.15%.
C[C@@H]1CN([C@H](C)CO)C(=O)c2cccc(NC(=O)CCCCCC(=O)Nc3ccccc3N)c2O[C@H]1CN(C)CC1CC1 gave activity change (Venus) -72.91%.
O=C(C[C@H]1C[C@@H]2c3cc(NC(=O)C4CCC4)ccc3O[C@@H]2[C@@H](CO)O1)NCc1ccc(-c2ccccc2)cc1 gave activity change (Venus) -33.22%.
C[C@@H]1CN([C@@H](C)CO)C(=O)c2ccccc2-c2ccccc2CO[C@H]1CN(C)S(=O)(=O)c1ccc([N+](=O)[O-])cc1 gave activity change (Venus) -34.35%.
C[C@H](CO)N1C[C@H](C)[C@H](CN(C)C(=O)Nc2ccc(F)cc2)OCCCC[C@H](C)Oc2ccc(NS(=O)(=O)c3ccccc3)cc2C1=O gave activity change (Venus) -32.83%.
COc1ccc(NC(=O)N2CC(=O)N3[C@H](CO)[C@@H](c4ccc(C#CCC5CCCC5)cc4)[C@@H]3C2)cc1 gave activity change (Venus) -64.81%.
CC(C)CC#Cc1ccc2c(c1)O[C@H](CN(C)Cc1ccccn1)[C@H](C)CN([C@@H](C)CO)S2(=O)=O gave activity change (Venus) -52.04%.
COc1ccc2c3c([nH]c2c1)[C@@H](CO)N(C(C)=O)CC31CCN(Cc2ccccc2Cl)CC1 gave activity change (Venus) -49.99%.
C[C@@H]1CN([C@@H](C)CO)C(=O)c2cc(NC(=O)NC3CCCCC3)ccc2O[C@H]1CN(C)Cc1ccc(Cl)c(Cl)c1 gave activity change (Venus) -30.63%.

2 of the entries, repeated:

- C[C@@H]1CN([C@@H](C)CO)C(=O)c2ccccc2-c2ccccc2CO[C@H]1CN(C)S(=O)(=O)c1ccc([N+](=O)[O-])cc1 : activity change (Venus) -34.35%
- COc1ccccc1S(=O)(=O)N(C)C[C@@H]1Oc2cc(C#CCC(C)C)ccc2S(=O)(=O)N([C@H](C)CO)C[C@@H]1C : activity change (Venus) -40.83%